Assay results taken from PubChem BioAssay AID330 (DTP/NCI, 2004).
The list shows only some results of the screen, not a fair sample: it is rich in T/C values a quarter to a half above the control, in often repeated tests (any T/C) and in doses without a T/C. Further doses and runs are listed elsewhere. T/C: endpoint of the treated group in % of that of the vehicle group. Some entries give survivors of the animals treated and no T/C: the source files T/C as zero there, which appears to mark a toxic dose or a test without result, not a measured value. Some survivor counts are full or nearly so, which does not show that the dose was tolerated: the source hardly ever lists a survival T/C far under the control, and the zero likely stands for such cases as well. Survivors were counted at the toxicity check, usually on the fifth day, unless a day is given; later deaths do not show. Schedule codes are those of the source, taken here to give the interval after Q, in days (D) or hours (H), and the number of doses after X. Signs of the kind (2×) give the number of equal values in this list. Some entries were tested several times; the values are given in rising order. For survival time, this PubChem deposit counts one and a half times the control or more as active, and values a quarter to a half above the control carry no call in these data; other NCI protocols may use other cut-offs. Some T/C values are followed by the survivors on the day toxicity was checked, most often the fifth; without a count, all were alive then.

Test system: P388 leukemia ip, CD2F1 mice, survival T/C
Experiment: NCI In Vivo Anticancer Drug Screen. Data for tumor model P388 Leukemia (intraperitoneal) in CD2F1 (CDF1) mice
Conditions: T/C endpoint: median survival time, vehicle: Klucel (hydroxypropylcellulose) (HPC), higher T/C = longer survival
[1] = dose: 50.0 mg/kg/injection, schedule: Q01DX009 (ip)
[2] = dose: 100.0 mg/kg/injection, schedule: Q01DX009 (ip)
[3] = dose: 200.0 mg/kg/injection, schedule: Q01DX009 (ip)
[4] = dose: 400.0 mg/kg/injection, schedule: Q01DX009 (ip)

**Q.** `O=c1cnn(C2OC(CO)C(O)C2O)c(=O)[nH]1` (configuration not stated) was tested. Which T/C (dose: 50.0 mg/kg/injection, schedule: Q01DX001 (ip), evaluated on day 30) did it give?
**A.** 90, 96, 97, 98, 100 (6×), 101 (2×), 102, 103, 105 (2×), 106 (2×), 107, 108 (2×), 110, 111, 115, 115 [2 of 3 alive], 118, 121, 126, 129 % of control

**Q.** What about the T/C (dose: 50.0 mg/kg/injection, schedule: Q01DX001 (ip), evaluated on day 35) of the same molecule?
**A.** 103 % of control

**Q.** And the survivor count (dose: 50.0 mg/kg/injection, schedule: Q01DX001 (ip))?
**A.** 3 of 3 and 6 of 6

**Q.** What about the T/C (dose: 50.0 mg/kg/injection, schedule: Q01DX005 (ip), evaluated on day 30) of the same molecule?
**A.** 99 (2×), 101 (2×), 102 (2×), 103 (2×), 104 (2×), 106 (3×), 108, 109 (2×), 110, 111 (2×), 112 (4×), 113, 113 [2 of 3 alive], 114 (4×), 115 (2×), 120 % of control (2×)

**Q.** And the T/C (dose: 50.0 mg/kg/injection, schedule: Q01DX005 (ip), evaluated on day 35)?
**A.** 110 % of control

**Q.** And the survivor count (dose: 50.0 mg/kg/injection, schedule: Q01DX005 (ip))?
**A.** 1 of 3

**Q.** And the T/C [1]?
**A.** 95, 96, 101 (2×), 103 (2×), 104, 105, 106 (2×), 107 (2×), 108, 109 (2×), 110, 111, 112, 113 (2×), 115, 115 [2 of 3 alive], 116, 117, 118 (2×), 120 (2×), 121, 122, 125, 126 (2×), 130 % of control

**Q.** What about the survivor count [1] of the same molecule?
**A.** 6 of 6

**Q.** What about the T/C (dose: 50.0 mg/kg/injection, schedule: Q04DX002 (ip)) of the same molecule?
**A.** 86, 88, 91 [5 of 6 alive], 96 (2×), 97, 99 (2×), 100, 101 (3×), 102 (2×), 103, 104, 105 (2×), 106 (3×), 109 (5×), 110 (2×), 112 (2×), 113, 116 (2×), 123, 134 % of control

**Q.** And the T/C (dose: 50.0 mg/kg/injection, schedule: Q04DX003 (ip), evaluated on day 30)?
**A.** 90, 92, 95, 96, 99, 100, 101, 103 (3×), 105 (2×), 106 (4×), 107 (4×), 108 (2×), 109 (2×), 109 [3 of 4 alive], 111, 112, 113, 114 (3×), 119, 122, 123, 126 % of control

**Q.** What about the T/C (dose: 50.0 mg/kg/injection, schedule: Q04DX003 (ip), evaluated on day 35) of the same molecule?
**A.** 120 % of control

**Q.** And the T/C (dose: 100.0 mg/kg/injection, schedule: Q01DX001 (ip), evaluated on day 30)?
**A.** 91, 92, 97 (2×), 99, 100 (2×), 101 (3×), 102, 103 (3×), 105 (2×), 106 (4×), 107 (3×), 108 (3×), 110, 111, 113 % of control

**Q.** And the T/C (dose: 100.0 mg/kg/injection, schedule: Q01DX001 (ip), evaluated on day 35)?
**A.** 104 % of control [5 of 6 alive]

**Q.** And the survivor count (dose: 100.0 mg/kg/injection, schedule: Q01DX001 (ip))?
**A.** 3 of 3 and 6 of 6

**Q.** What about the T/C (dose: 100.0 mg/kg/injection, schedule: Q01DX005 (ip), evaluated on day 30) of the same molecule?
**A.** 91, 92, 101, 104, 104 [5 of 6 alive], 105, 106 (2×), 108, 109 (3×), 110, 111, 113 (3×), 114 (2×), 115 (3×), 116 (2×), 117 (3×), 118 (2×), 119, 120 (3×), 129 % of control

**Q.** What about the T/C (dose: 100.0 mg/kg/injection, schedule: Q01DX005 (ip), evaluated on day 35) of the same molecule?
**A.** 125 % of control

**Q.** What about the T/C [2] of the same molecule?
**A.** 87, 100, 101, 102, 104, 105, 106 (3×), 107 (4×), 108, 109 (2×), 110 (3×), 111 (2×), 117, 118, 120, 121, 122, 124, 125 (2×), 128, 129, 131, 148, 166 % of control

**Q.** And the survivor count [2]?
**A.** 6 of 6

**Q.** And the T/C (dose: 100.0 mg/kg/injection, schedule: Q04DX002 (ip))?
**A.** 92, 93, 95, 97 (2×), 98, 99 (3×), 100 (4×), 101, 102 (3×), 105, 106 (3×), 107, 109 (3×), 110, 111 (4×), 112 % of control (5×)

**Q.** What about the T/C (dose: 100.0 mg/kg/injection, schedule: Q04DX003 (ip), evaluated on day 30) of the same molecule?
**A.** 88 [5 of 6 alive], 95 [2 of 3 alive], 99, 100 [2 of 3 alive], 102, 103 (3×), 104, 105 (4×), 106 (2×), 107, 108 (2×), 109 (2×), 110, 111 (5×), 113, 114, 115, 117 (3×), 118, 121 % of control (2×)

**Q.** What about the T/C (dose: 100.0 mg/kg/injection, schedule: Q04DX003 (ip), evaluated on day 35) of the same molecule?
**A.** 118 % of control

**Q.** And the T/C (dose: 200.0 mg/kg/injection, schedule: Q01DX001 (ip), evaluated on day 30)?
**A.** 96, 100 (5×), 101 (5×), 103, 104, 105 (5×), 106 (5×), 107, 108 (2×), 111, 116, 118 % of control

**Q.** What about the T/C (dose: 200.0 mg/kg/injection, schedule: Q01DX001 (ip), evaluated on day 35) of the same molecule?
**A.** 104 % of control

**Q.** What about the survivor count (dose: 200.0 mg/kg/injection, schedule: Q01DX001 (ip)) of the same molecule?
**A.** 3 of 3 and 6 of 6

**Q.** What about the T/C (dose: 200.0 mg/kg/injection, schedule: Q01DX005 (ip), evaluated on day 30) of the same molecule?
**A.** 99, 102, 104, 108, 109, 111, 112 (5×), 113 (5×), 114, 115, 116 (3×), 117, 119, 120 (2×), 123 (4×), 127, 131 (2×), 132, 140 % of control

**Q.** And the T/C (dose: 200.0 mg/kg/injection, schedule: Q01DX005 (ip), evaluated on day 35)?
**A.** 117 % of control

**Q.** What about the T/C [3] of the same molecule?
**A.** 87, 94, 96, 98, 99, 100, 100 [2 of 3 alive], 101, 104 (2×), 105 (3×), 107 (2×), 108, 109, 110 (2×), 111, 112, 113 (2×), 115, 116, 118, 126 (2×), 127, 129, 145 % of control [5 of 6 alive]

**Q.** What about the survivor count [3] of the same molecule?
**A.** 3 of 6 and 6 of 6

**Q.** What about the T/C (dose: 200.0 mg/kg/injection, schedule: Q04DX002 (ip)) of the same molecule?
**A.** 93, 94, 97, 98, 100 (3×), 101, 102 (4×), 103 (2×), 105 (3×), 106 (3×), 107, 108 (2×), 109 (3×), 111 (5×), 112 (2×), 116, 123 % of control

**Q.** And the T/C (dose: 200.0 mg/kg/injection, schedule: Q04DX003 (ip), evaluated on day 30)?
**A.** 90, 91, 94 (2×), 96, 100, 101, 102, 103 (3×), 104 (3×), 105 (3×), 106 (4×), 106 [2 of 3 alive], 107, 110, 113 (3×), 114 (4×), 116, 117, 118, 122 % of control

**Q.** And the T/C (dose: 200.0 mg/kg/injection, schedule: Q04DX003 (ip), evaluated on day 35)?
**A.** 124 % of control

**Q.** And the T/C (dose: 400.0 mg/kg/injection, schedule: Q01DX001 (ip), evaluated on day 30)?
**A.** 100 (3×), 101 (2×), 102 (2×), 103 (3×), 104, 105, 106 (4×), 107, 108 (2×), 110 (2×), 111 (2×), 112 (2×), 116, 135, 137 % of control

**Q.** What about the T/C (dose: 400.0 mg/kg/injection, schedule: Q01DX001 (ip), evaluated on day 35) of the same molecule?
**A.** 91 % of control

**Q.** What about the survivor count (dose: 400.0 mg/kg/injection, schedule: Q01DX001 (ip)) of the same molecule?
**A.** 3 of 3 and 6 of 6

**Q.** And the T/C (dose: 400.0 mg/kg/injection, schedule: Q01DX005 (ip), evaluated on day 30)?
**A.** 99, 111, 114, 115 (3×), 116 (3×), 117 (2×), 118 (2×), 120 (4×), 122 (3×), 123 (4×), 125 (2×), 126, 127 (3×), 128, 136, 138 % of control (2×)

**Q.** What about the T/C (dose: 400.0 mg/kg/injection, schedule: Q01DX005 (ip), evaluated on day 35) of the same molecule?
**A.** 127 % of control

**Q.** And the T/C [4]?
**A.** 96, 99, 100 (2×), 101, 102, 104, 105, 106, 107, 108 (2×), 114 (2×), 115 [2 of 3 alive], 118, 121, 125, 126, 128, 129 (2×), 130, 133, 135, 140, 142, 144 (2×), 145 % of control

**Q.** What about the survivor count [4] of the same molecule?
**A.** 6 of 6 (2×)

**Q.** What about the T/C (dose: 400.0 mg/kg/injection, schedule: Q04DX002 (ip)) of the same molecule?
**A.** 94, 100 (3×), 103 (2×), 104 (3×), 105 (4×), 107 (3×), 108, 109 (3×), 110 (2×), 111 (3×), 112 (2×), 113, 115 (2×), 116 (2×), 117, 124, 126 % of control

**Q.** And the T/C (dose: 400.0 mg/kg/injection, schedule: Q04DX003 (ip), evaluated on day 30)?
**A.** 91, 97, 100, 101 [5 of 6 alive], 102 (2×), 104 (2×), 105 (3×), 106 (2×), 109 (4×), 110 (3×), 111 (2×), 112, 113 (2×), 116 (3×), 117 (2×), 118, 119, 122, 126 % of control

**Q.** And the T/C (dose: 400.0 mg/kg/injection, schedule: Q04DX003 (ip), evaluated on day 35)?
**A.** 100 % of control

**Q.** What about the survivor count (dose: 400.0 mg/kg/injection, schedule: Q04DX003 (ip)) of the same molecule?
**A.** 3 of 3
